From paper PMC11231564
Results are given in words; binding and its absence hold for the method and conditions named.

Protein sequences, listed by entry. Tags and fused reporters are not part of them. Residues count along the entry.
UniProt P10155: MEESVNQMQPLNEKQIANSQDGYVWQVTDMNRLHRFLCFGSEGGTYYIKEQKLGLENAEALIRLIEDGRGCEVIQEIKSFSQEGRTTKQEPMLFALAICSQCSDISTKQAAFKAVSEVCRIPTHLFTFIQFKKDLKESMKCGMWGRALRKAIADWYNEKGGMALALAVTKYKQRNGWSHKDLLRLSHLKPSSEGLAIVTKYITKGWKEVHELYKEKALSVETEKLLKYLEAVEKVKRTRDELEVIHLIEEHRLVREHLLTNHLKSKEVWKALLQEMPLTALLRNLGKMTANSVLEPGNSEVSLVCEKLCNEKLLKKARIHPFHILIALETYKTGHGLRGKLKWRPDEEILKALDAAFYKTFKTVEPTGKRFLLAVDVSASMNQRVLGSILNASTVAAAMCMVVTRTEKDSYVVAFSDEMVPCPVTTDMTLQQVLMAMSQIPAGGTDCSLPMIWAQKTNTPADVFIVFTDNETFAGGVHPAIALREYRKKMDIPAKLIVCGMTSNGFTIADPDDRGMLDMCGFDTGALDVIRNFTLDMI
UniProt P02769, residues 25-607: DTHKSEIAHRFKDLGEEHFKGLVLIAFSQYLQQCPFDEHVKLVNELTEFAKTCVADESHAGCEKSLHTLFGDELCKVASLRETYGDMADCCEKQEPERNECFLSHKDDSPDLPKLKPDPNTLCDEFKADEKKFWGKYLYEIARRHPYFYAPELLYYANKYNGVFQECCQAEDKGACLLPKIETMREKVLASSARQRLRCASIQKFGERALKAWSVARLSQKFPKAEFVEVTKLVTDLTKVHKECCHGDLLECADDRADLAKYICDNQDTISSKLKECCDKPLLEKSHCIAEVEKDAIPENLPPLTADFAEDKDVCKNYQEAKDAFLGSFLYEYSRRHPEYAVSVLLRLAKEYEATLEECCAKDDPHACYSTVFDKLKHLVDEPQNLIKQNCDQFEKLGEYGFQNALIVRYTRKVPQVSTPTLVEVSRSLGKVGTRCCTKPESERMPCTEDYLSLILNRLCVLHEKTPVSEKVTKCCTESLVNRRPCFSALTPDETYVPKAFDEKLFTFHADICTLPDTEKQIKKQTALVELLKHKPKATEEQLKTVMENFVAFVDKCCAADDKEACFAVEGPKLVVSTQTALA

Target: Ro60 protein (recombinant human protein) (human) (UniProt P10155)
Experiment: QCM-D; Ro60 coupled to the chip; Ro52 300 mg/L (BSA 700 mg/L) flowed over; 1x PBS pH 7.4 lacking CaCl2, 50 µL/min, 25 °C; one-to-one binding kinetics model; apparent equilibrium constant; both purified

binding: no binding (tested: 700 mg/L)
Substance: bovine serum albumin (from UniProt P02769 25-607)
